This note sets out measurements from article PMC9870996.

The chains behind the UniProt entries cited, without tags or fusion partners.
UniProt Q8NET8: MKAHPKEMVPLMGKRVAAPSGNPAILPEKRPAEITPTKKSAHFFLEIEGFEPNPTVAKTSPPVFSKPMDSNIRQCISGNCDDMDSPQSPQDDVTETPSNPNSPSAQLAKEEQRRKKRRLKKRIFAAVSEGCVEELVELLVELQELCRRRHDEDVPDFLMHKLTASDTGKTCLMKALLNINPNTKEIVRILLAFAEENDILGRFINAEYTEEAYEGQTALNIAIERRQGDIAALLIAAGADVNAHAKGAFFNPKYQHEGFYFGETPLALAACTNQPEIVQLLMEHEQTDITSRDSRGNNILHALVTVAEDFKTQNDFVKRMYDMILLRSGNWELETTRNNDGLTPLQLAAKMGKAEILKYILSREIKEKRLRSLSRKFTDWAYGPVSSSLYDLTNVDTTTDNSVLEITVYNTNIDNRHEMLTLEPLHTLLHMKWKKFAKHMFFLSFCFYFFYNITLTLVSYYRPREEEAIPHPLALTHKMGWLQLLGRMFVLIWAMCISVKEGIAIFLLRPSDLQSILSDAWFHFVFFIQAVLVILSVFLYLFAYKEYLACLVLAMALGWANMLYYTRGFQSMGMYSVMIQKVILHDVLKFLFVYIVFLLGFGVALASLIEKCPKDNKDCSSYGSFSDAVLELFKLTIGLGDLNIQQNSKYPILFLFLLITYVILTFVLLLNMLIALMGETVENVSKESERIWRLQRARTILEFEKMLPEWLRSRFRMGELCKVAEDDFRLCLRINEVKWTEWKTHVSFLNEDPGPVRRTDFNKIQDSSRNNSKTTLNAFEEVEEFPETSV

For the test, the target named is T1, human anoctamin1 (ANO1) (human) (UniProt Q5XXA6).
T1 sequence: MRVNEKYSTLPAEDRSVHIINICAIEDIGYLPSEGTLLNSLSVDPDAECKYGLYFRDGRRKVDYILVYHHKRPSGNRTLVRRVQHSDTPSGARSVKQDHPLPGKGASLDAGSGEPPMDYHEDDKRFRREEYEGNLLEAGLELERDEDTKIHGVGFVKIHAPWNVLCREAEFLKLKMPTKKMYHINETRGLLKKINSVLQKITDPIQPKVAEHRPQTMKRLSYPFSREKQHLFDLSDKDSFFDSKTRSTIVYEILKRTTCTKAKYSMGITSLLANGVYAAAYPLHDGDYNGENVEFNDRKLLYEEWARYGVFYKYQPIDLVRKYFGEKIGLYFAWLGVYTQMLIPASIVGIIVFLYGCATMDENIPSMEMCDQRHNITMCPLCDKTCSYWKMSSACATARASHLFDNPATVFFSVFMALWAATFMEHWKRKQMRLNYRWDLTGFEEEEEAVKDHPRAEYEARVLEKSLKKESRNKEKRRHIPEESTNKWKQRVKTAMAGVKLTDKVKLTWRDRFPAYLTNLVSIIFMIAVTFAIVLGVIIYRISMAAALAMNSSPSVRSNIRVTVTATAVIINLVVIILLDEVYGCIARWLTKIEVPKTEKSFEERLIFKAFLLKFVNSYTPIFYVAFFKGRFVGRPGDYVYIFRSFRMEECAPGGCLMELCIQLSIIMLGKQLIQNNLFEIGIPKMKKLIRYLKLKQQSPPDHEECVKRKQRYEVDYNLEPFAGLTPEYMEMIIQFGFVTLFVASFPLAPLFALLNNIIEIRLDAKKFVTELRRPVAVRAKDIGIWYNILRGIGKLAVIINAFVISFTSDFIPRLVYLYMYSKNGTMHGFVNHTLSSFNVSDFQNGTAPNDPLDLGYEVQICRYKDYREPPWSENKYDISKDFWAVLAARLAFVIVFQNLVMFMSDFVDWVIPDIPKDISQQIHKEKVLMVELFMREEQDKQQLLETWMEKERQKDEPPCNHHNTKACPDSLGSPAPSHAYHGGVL
The test can be described thus: co-IP; lysate of transfected HEK293T cells (1% Triton X-100, 150 mM NaCl, 10 mM Tris-HCl, 1 mM EDTA, pH 7.5); precipitated overnight with anti-ANO1 or anti-TRPV3 antibody and protein G Mag Sepharose; blotted with anti-TRPV3.

No constants are given. Whether binding was seen depends on the method and setting. In cells and extracts the contact can be indirect. Some entries that bind do so weakly or less than the wild type.

Consider “human TRPV3 (transient receptor potential vanilloid 3) (from UniProt Q8NET8 1-790)”, for which the binding entry is recorded as “binds”.
